# PubChem BioAssay AID540256 (National Center for Advancing Translational Sciences (NCATS), 2011)
# Out of some 300,000 compounds screened, about 3,700 (1.2%) were called active. This list was built around the results that the source calls inconclusive (neither active nor inactive); the mix of calls is not that of the screen. Calls come from the whole dose curve; tested in HEK293 cells. Potencies beside an inconclusive call are fits to weak or partial responses and may not hold up.
# Assay: qHTS for Inhibitors of binding or entry into cells for Lassa Virus; note: nearly all actives have a fitted effect of over 50% in size
# Conditions: Lassa virus pseudotype entry inhibition, cell reporter; activity change, negative = inhibition: at 37.9 µM (top of the series) unless noted
# % is set by controls: 0 for no effect and ±100 for the full control effect; potency is the fitted concentration of half-maximal effect.
SMILES,"activity change, negative = inhibition",Potency
Cc1ccc2nc(-c3ccccn3)cc(C(=O)NC(C)C(C)(C)C)c2c1 (centres undefined),inactive: 5.29%,–
Cc1ccc(NC(=O)c2ccc(CSc3nnc(C)s3)cc2)cc1,–,"inconclusive: 17.8 µM [inhibitor, single point]"
Cc1ccccc1OCCOc1cccc(/C=N/NC(=O)Cc2nnc(N)s2)c1,–,"inconclusive: 8.91 µM [inhibitor, partial curve, poor fit]"
COc1ccc2[nH]c3c(=O)n(N)c(C)nc3c2c1,inactive: 2.64%,–
Cc1ccc(-c2nnn(C(C)C(=O)N3c4ccccc4CCc4ccccc43)n2)cc1 (centres undefined),–,"inconclusive: 20 µM [inhibitor, single point]"
COc1ccc(-c2[nH]ncc2/C=C(/C#N)C(=O)NC2CCCCC2)cc1,–,"inconclusive: 11.2 µM [inhibitor, partial curve, poor fit]"
CCN(CC)CC(=O)Nc1cccc2c1C(=O)c1ccccc1C2=O,inactive: -25.3%,–
Cc1ccc(N=Nc2[nH]c3ccccc3c2O)cc1,–,"inconclusive: 3.66 µM [activator, partial curve]"
Cc1c(C)n(CCc2ccccc2)c2ncnc(NCCCN(C)C)c12,inactive: 2.64% [at 46.1 µM],–
Cc1cc(OCC(=O)NNC(=S)NCC2CCCO2)cc(C)c1Cl (centres undefined),–,"inconclusive: 5.01 µM [activator, partial curve, poor fit]"
CN(C(=O)CSc1nc2ccc(NC(=O)COc3ccc(F)cc3)cc2s1)c1ccccc1,–,"inconclusive: 1.78 µM [inhibitor, full curve]"
COc1ccc(NC(=O)c2c(N)no[n+]2[O-])c(OC)c1,–,"inconclusive: 35.5 µM [inhibitor, single point]"
CC(C)Sc1ncc(Cl)c(C(=O)Nc2nc3ccc(S(C)(=O)=O)cc3s2)n1,inactive: 42.1% [at 46.1 µM],–
CC(C)(C)NC(=O)CN(C(=O)CN1C(=O)C(=O)c2ccccc21)C(C)(C)C,–,"inconclusive: 14.1 µM [activator, partial curve, poor fit]"
COc1cccc(-n2cc(CN(C)Cc3nc(Cc4cccc(F)c4)no3)cn2)c1,–,"inconclusive: 35.5 µM [inhibitor, single point]"
CCOc1ccc(NC(=O)CC2Nc3cccc4cccc(c34)NC2=O)cc1 (centres undefined),inactive: -7.17% [at 46.1 µM],–
CCCN(CCC)Cc1c(C(=O)N/N=C/CCc2ccccc2)nnn1-c1nonc1N,–,"inconclusive: 14.1 µM [inhibitor, single point]"
COc1cccc(/C=N/NC(=O)CNC(=O)c2ccc3c(c2)OCCO3)c1O,–,"inconclusive: 35.5 µM [inhibitor, single point]"
Cc1ccc(CCC(=O)Nc2ncc(Cc3cccc(Cl)c3Cl)s2)o1,–,"inconclusive: 0.447 µM [inhibitor, full curve, poor fit]"

# Random excerpt: two records from the list, in no set order.
SMILES,"activity change, negative = inhibition",Potency
CC(C)(C)NC(=O)CN(C(=O)CN1C(=O)C(=O)c2ccccc21)C(C)(C)C,–,"inconclusive: 14.1 µM [activator, partial curve, poor fit]"
Cc1ccccc1OCCOc1cccc(/C=N/NC(=O)Cc2nnc(N)s2)c1,–,"inconclusive: 8.91 µM [inhibitor, partial curve, poor fit]"
